Experimental data from publication doi:10.1101/368704.
Results are given in words; binding and its absence hold for the method and conditions named. A result given as binding can be weak or reduced; the word gives no strength. Tags and fused reporters may be left off the sequences shown.

Each substance was assayed against T1, TOPLESS amino-terminal region (AA 1-188; TPL-N), bait fused to the GAL4 DBD (A. thaliana) (UniProt Q94AI7) (assay: two-hybrid).
T1 sequence: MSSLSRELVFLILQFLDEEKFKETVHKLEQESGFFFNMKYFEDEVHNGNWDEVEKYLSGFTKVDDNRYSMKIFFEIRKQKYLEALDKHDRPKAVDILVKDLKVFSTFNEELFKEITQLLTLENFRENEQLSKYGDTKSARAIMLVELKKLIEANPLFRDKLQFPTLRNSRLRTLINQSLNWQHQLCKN

binding, binds:
RING/U-box protein AT3G05670, prey of the A. thaliana Y2H cDNA library
homeodomain TF AT2G40260, prey of the A. thaliana Y2H cDNA library
RING/U-box protein AT3G05670, prey of the binary Y2H fused to the GAL4 AD (from UniProt Q9M9X2)
putative TF AT3G54390, prey of the binary Y2H fused to the GAL4 AD (A. thaliana)
putative TF AT3G54390, prey of the A. thaliana Y2H cDNA library
homeodomain TF AT2G40260, prey of the binary Y2H fused to the GAL4 AD (A. thaliana)
